The results in this text go back to PMC9830830.

These are yes or no findings as the source states them, for the method shown. In cells and extracts the contact can be indirect. Some entries that bind do so weakly or less than the wild type.

In experiment [1] the target is T1, CKLF-like MARVEL transmembrane domain-containing 6 (CMTM6) (human (endogenous in JIMT-1)) (UniProt Q9NX76).
T1 sequence: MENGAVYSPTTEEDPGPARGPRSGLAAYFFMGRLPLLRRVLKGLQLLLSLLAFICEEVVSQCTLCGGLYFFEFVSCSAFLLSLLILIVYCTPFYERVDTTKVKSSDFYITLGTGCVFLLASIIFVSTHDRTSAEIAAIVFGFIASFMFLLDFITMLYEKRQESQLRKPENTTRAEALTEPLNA
Nature of the experiment: co-IP; JIMT-1 cells lysed in RIPA buffer with protease/phosphatase inhibitor; lysate incubated at 4 °C for 4 h with anti-CMTM6, anti-HER2 or control IgG, then with beads at 4 °C overnight; washed with ice-cold PBS; Western blot with anti-HER2 or anti-CMTM6. On the technique in general: In western blotting, separated proteins are transferred to a membrane and probed.

Experiment [2] deals with Human epidermal growth factor receptor 2 (HER2) (human (endogenous in JIMT-1)) (UniProt P04626). The description is as above.

As to “Human epidermal growth factor receptor 2 (HER2) (from UniProt P04626 23-1255)”, in experiment [1], the binding entry was “binds”.

B1: CKLF-like MARVEL transmembrane domain-containing 6 (CMTM6) (protein, UniProt Q9NX76 1-183)
chain: T1 sequence
With B1, the binding result in experiment [2] is given as “binds”.
